Measurements taken from the supplement of paper PMC10849652.
The list shows a part of the results.

Sequences of proteins named here, by UniProt entry; tags and fusion partners are left off. A change or cut given only in a name is not applied to a line headed by its entry.
UniProt Q9Y221: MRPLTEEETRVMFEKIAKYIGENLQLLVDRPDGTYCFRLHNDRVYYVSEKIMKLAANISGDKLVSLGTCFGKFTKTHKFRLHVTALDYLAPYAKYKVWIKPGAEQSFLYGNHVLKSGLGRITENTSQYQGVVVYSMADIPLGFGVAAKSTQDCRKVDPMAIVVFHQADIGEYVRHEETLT
UniProt Q8TAT6: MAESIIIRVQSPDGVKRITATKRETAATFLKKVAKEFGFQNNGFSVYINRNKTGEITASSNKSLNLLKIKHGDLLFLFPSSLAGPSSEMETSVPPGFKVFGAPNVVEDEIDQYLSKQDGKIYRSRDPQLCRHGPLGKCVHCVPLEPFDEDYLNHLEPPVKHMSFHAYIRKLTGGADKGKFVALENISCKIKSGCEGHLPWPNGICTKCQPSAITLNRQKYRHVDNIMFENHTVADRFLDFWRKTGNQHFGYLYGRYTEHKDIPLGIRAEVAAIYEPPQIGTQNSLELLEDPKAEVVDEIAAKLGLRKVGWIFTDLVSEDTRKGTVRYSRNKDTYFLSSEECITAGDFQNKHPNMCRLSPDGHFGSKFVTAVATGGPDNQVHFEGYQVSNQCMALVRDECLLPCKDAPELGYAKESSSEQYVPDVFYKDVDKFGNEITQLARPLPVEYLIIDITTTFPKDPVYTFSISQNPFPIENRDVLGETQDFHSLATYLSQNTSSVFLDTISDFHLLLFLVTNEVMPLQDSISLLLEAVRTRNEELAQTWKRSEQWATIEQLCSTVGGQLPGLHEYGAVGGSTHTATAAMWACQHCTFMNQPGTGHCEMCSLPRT
UniProt O00567: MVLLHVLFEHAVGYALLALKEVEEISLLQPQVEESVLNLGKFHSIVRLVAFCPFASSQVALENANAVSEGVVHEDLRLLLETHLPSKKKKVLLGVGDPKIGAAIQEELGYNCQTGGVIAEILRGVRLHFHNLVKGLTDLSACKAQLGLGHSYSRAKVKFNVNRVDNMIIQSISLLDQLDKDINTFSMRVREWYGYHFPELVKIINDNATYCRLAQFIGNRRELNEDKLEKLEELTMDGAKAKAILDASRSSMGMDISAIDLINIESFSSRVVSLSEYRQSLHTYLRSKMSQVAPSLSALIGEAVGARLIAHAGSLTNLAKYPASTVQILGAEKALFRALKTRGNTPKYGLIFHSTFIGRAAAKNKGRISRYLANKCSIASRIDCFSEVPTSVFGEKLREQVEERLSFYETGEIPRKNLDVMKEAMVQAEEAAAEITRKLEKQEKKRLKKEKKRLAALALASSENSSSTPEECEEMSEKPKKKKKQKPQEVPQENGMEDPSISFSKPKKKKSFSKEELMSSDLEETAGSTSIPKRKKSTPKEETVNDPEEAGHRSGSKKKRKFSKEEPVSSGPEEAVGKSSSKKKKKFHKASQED
UniProt Q9H9Q4: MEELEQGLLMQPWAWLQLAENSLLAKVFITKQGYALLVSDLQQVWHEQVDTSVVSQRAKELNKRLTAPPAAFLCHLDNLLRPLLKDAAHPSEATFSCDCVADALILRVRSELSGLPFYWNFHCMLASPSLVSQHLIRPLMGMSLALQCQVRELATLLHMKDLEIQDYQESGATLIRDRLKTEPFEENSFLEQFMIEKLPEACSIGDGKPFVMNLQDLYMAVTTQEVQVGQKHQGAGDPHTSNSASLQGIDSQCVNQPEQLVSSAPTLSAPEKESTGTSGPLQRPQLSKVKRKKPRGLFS
UniProt Q15233: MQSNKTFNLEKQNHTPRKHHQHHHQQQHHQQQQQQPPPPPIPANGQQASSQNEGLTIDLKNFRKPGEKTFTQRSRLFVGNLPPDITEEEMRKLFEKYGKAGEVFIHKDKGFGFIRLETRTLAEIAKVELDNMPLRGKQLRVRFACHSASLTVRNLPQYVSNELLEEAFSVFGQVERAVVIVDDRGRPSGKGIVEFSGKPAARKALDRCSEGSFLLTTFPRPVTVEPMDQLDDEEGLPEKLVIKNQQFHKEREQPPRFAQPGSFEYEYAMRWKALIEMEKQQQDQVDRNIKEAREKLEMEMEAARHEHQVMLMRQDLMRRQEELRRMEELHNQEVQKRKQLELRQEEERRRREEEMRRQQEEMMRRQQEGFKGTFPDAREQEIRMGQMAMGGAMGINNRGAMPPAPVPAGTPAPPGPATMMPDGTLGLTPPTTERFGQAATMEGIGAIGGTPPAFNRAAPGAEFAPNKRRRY
UniProt P61916: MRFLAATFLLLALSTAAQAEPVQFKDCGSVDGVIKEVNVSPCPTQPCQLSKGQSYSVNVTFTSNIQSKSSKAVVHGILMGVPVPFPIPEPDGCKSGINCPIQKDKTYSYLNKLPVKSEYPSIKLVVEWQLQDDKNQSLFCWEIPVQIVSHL
UniProt Q9NQR4: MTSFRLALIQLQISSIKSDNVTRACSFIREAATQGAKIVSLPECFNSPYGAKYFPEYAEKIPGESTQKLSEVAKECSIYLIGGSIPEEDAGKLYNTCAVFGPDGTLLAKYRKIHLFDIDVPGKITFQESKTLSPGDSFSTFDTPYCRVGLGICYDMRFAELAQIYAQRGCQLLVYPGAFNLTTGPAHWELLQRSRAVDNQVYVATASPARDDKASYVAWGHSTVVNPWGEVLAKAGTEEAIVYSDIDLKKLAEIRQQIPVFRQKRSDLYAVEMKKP
UniProt O75414: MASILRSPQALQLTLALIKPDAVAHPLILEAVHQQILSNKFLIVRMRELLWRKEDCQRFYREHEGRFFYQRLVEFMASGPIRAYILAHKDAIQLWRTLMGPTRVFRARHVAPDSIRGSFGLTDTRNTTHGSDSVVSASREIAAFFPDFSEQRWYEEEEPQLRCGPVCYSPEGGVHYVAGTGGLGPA
UniProt Q9NX02: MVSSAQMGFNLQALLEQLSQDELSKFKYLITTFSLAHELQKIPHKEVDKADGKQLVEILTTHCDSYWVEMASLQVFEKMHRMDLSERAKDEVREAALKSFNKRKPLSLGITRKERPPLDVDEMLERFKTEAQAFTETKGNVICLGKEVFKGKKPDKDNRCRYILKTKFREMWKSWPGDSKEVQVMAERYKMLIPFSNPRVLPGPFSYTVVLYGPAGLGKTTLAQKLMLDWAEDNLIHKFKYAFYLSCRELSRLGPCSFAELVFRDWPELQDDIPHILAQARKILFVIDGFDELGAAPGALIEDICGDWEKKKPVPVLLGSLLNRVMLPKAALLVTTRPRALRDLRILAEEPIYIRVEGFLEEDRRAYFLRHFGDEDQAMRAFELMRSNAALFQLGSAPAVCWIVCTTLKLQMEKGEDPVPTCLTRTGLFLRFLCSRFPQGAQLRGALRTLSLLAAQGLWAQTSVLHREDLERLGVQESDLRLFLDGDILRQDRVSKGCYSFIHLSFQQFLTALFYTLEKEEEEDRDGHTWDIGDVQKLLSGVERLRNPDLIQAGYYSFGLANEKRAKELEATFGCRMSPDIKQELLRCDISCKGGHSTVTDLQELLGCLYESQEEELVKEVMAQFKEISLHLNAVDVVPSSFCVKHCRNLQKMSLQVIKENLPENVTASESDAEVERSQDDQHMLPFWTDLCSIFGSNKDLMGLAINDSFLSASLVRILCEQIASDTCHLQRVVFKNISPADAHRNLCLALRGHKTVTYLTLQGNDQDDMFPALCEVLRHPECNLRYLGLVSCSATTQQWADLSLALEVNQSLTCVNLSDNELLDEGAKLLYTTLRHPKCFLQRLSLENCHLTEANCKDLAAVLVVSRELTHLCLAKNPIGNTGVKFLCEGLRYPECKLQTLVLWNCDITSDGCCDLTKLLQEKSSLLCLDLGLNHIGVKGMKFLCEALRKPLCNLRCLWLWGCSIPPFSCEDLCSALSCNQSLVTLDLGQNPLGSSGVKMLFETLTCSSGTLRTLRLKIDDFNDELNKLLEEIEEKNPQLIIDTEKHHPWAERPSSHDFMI
UniProt Q9BYT8, whole entry, looked up: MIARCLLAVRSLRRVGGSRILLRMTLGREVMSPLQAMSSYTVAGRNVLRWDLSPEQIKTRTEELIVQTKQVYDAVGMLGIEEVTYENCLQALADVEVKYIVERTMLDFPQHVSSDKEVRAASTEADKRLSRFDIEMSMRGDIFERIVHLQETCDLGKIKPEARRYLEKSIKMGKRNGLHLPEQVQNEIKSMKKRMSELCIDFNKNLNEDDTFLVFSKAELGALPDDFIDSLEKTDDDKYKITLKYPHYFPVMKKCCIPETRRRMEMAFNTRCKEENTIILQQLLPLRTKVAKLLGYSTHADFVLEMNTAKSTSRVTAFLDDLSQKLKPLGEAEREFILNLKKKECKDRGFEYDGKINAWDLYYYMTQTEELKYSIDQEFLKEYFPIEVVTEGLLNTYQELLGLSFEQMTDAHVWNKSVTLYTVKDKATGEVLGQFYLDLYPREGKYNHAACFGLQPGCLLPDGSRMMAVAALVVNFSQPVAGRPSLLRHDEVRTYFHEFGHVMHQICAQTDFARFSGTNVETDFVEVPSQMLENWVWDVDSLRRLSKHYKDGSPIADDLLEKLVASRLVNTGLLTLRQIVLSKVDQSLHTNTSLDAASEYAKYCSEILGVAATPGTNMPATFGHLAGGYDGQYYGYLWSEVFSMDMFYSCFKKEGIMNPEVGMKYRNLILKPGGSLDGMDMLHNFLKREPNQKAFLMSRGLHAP
UniProt P19838: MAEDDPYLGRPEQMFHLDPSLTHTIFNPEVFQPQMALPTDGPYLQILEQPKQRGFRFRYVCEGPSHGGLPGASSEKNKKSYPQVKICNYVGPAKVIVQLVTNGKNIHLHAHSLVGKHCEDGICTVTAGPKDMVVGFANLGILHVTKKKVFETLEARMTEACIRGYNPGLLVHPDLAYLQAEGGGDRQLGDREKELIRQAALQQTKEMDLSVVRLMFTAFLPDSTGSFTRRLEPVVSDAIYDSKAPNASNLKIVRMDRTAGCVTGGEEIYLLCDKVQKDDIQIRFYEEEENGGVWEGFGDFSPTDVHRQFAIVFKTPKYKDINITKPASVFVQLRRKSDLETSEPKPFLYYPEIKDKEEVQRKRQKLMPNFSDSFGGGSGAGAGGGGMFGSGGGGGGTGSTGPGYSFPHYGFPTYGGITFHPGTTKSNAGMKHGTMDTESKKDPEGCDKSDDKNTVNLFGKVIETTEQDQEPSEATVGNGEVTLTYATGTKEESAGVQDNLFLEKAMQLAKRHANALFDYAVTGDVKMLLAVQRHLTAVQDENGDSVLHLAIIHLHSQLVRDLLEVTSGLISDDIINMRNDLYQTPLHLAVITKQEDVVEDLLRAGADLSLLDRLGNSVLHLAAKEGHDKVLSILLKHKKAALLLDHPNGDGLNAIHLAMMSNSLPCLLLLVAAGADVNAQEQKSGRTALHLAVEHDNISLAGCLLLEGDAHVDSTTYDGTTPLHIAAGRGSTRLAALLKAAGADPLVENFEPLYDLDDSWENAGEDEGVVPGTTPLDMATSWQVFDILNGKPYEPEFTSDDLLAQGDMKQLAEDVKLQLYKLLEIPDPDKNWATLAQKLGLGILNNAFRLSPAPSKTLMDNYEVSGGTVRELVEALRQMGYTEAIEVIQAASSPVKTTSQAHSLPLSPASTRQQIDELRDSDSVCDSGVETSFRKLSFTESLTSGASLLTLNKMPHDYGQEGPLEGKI
UniProt Q96IY1: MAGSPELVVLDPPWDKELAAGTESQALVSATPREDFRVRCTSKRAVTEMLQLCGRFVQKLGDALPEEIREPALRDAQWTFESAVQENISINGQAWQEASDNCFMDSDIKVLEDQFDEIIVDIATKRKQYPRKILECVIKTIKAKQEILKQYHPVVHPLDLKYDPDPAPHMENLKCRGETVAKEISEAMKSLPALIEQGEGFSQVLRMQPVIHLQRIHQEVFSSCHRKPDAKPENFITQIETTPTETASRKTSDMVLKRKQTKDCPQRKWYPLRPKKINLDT
UniProt Q9NX24: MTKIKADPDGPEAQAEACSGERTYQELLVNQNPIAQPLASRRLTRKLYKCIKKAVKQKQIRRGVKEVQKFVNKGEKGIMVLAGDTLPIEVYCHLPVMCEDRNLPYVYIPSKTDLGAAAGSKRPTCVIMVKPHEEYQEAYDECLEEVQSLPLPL
UniProt Q8N8Q9: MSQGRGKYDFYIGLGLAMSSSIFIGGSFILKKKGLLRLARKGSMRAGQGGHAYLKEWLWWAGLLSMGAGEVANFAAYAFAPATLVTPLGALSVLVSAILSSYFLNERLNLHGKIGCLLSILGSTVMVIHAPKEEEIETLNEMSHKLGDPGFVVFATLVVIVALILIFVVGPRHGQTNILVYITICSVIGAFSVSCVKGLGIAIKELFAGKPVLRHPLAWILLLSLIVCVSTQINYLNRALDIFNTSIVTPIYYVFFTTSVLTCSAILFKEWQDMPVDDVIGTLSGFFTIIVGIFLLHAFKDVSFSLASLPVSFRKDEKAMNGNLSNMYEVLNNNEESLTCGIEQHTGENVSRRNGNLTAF

Assays:
Experiment in all cases: log2 fold change, soluble protein after heating vs DMSO (PISA); higher = thermal stabilisation; K562 cells, 10 uM, 30 min; active = over 0.2 and 3.5 SD of the protein, either way, in both replicates (recomputed)
[1] = compound: NC(=O)Nc1cc(-c2cccc(F)c2)sc1C(=O)N[C@H]1CCCNC1
Method in brief: (§1)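 Soluble protein was defined as the supernatant after 21,000xg for 90 min. It came from K562 cells at 2×10^6 cells/mL given 10 μM compound for 30 min, heated in aliquots for 3 min across 48°C-58°C, pooled, and extracted in PBS with 0.5% NP-40 at 4°C, and was quantified by TMTpro 16plex LC-MS/MS with equalised channel sums. Thermal stability against control samples, from duplicates, is reported as log2 fold change.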

[2] = compound: NC(=O)c1cnc(N[C@@H]2CCCC[C@@H]2N)nc1Nc1cccc(-n2nccn2)c1
Method in brief: as §1

[3] = compound: NC1(c2ccc(-c3nc4ccn5c(=O)[nH]nc5c4cc3-c3ccccc3)cc2)CCC1
Method in brief: as §1

[4] = compound: NCC(=O)Nc1ccc(-n2nc(C(F)(F)F)cc2-c2ccc3c(ccc4ccccc43)c2)cc1
Method in brief: as §1

entinostat = compound: Nc1ccccc1NC(=O)c1ccc(CNC(=O)OCc2cccnc2)cc1 [entinostat]
Method in brief: as §1

vorinostat = compound: O=C(CCCCCCC(=O)Nc1ccccc1)NO [vorinostat]
Method in brief: as §1

citarinostat = compound: O=C(CCCCCCNC(=O)c1cnc(N(c2ccccc2)c2ccccc2Cl)nc1)NO [citarinostat]
Method in brief: as §1

silmitasertib = compound: O=C(O)c1ccc2c(c1)nc(Nc1cccc(Cl)c1)c1ccncc12 [silmitasertib]
Method in brief: as §1

[5] = compound: O=C1NC(=O)C(c2cnc3ccccn23)=C1c1cn2c3c(cc(F)cc13)CN(C(=O)N1CCCCC1)CC2
Method in brief: as §1

[6] = compound: c1cc(OCCN2CCCCC2)cc(-c2n[nH]c3ccc(-c4nnc[nH]4)cc23)c1
Method in brief: as §1

entospletinib = compound: c1cn2cc(-c3ccc4cn[nH]c4c3)nc(Nc3ccc(N4CCOCC4)cc3)c2n1 [entospletinib]
Method in brief: as §1

Measured: log2 fold change

NSF (UniProt P46459)
inactive: [1] -0.071 | [2] -0.028 | [3] -0.138 | [4] -0.045 | entinostat 0.019 | vorinostat 0.03 | citarinostat 0.019 | silmitasertib -0.003 | [5] -0.009 | [6] -0.043 | entospletinib 0.014

NIF3L1 (UniProt Q9GZT8)
inactive: [1] -0.023 | [2] -0.007 | [3] 0.013 | [4] -0.002 | entinostat -0.009 | vorinostat -0.092 | citarinostat -0.031 | silmitasertib -0.003 | [5] -0.148 | [6] -0.037 | entospletinib 0.039

NF1 (UniProt P21359)
inactive: [1] -0.211 | [2] 0.002 | [3] 0.002 | [4] -0.175 | entinostat -0.064 | vorinostat -0.079 | citarinostat -0.216 | silmitasertib 0.027 | [5] -0.215 | [6] -0.031 | entospletinib 0.043

NRBF2 (UniProt Q96F24)
inactive: [1] 0.001 | [2] -0.018 | [3] -0.008 | [4] -0.055 | entinostat 0.023 | vorinostat -0.064 | citarinostat -0.035 | silmitasertib 0.024 | [5] -0.039 | [6] -0.058 | entospletinib -0.011

NIP7 (UniProt Q9Y221)
inactive: [1] 0.169 | [2] -0.026 | [3] 0.178 | [4] 0.148 | entinostat -0.047 | vorinostat -0.024 | citarinostat -0.107 | silmitasertib 0.135 | [5] 0.383 | [6] -0.113 | entospletinib 0.096

NPLOC4 isoform 2 (UniProt Q8TAT6)
inactive: [1] 0.02 | [2] -0.011 | [3] -0.067 | [4] -0.023 | entinostat -0.002 | vorinostat 0.008 | citarinostat 0.034 | silmitasertib -0.012 | [5] -0.041 | [6] -0.017 | entospletinib -0.019

NPM1 (UniProt P06748)
inactive: [1] 0.13 | [2] 0.073 | [3] 0.409 | [4] 0.146 | entinostat 0 | vorinostat -0.005 | citarinostat -0.12 | silmitasertib 0.177 | [5] 0.243 | [6] -0.154 | entospletinib 0.133

NOP56 (UniProt O00567)
inactive: [1] 0.162 | [2] 0.14 | [3] 0.197 | [4] 0.103 | entinostat -0.084 | vorinostat 0.014 | citarinostat -0.058 | silmitasertib 0.096 | [5] 0.09 | [6] -0.156

NHEJ1 (UniProt Q9H9Q4)
inactive: [1] 0.025 | [2] 0.044 | [3] -0.195 | [4] -0.182 | entinostat 0.005 | vorinostat 0.196 | citarinostat 0.082 | silmitasertib 0.016 | [5] -0.03 | [6] 0.018 | entospletinib 0.024

NOP16 (UniProt Q9Y3C1)
inactive: [1] -0.034 | [2] 0.115 | [3] 0.326 | [4] 0.186 | entinostat -0.144 | vorinostat -0.089 | citarinostat -0.102 | silmitasertib 0.214 | [5] 0.166 | [6] -0.292 | entospletinib -0.119

Random excerpt: 2 records from the list
NIF3L1 (UniProt Q9GZT8)
inactive: [1] -0.023 | [2] -0.007 | [3] 0.013 | [4] -0.002 | entinostat -0.009 | vorinostat -0.092 | citarinostat -0.031 | silmitasertib -0.003 | [5] -0.148 | [6] -0.037 | entospletinib 0.039

NF1 (UniProt P21359)
inactive: [1] -0.211 | [2] 0.002 | [3] 0.002 | [4] -0.175 | entinostat -0.064 | vorinostat -0.079 | citarinostat -0.216 | silmitasertib 0.027 | [5] -0.215 | [6] -0.031 | entospletinib 0.043

Remaining list, next part.

NONO (UniProt Q15233)
inactive: [1] 0.047 | [2] -0.014 | [3] 0.155 | [4] 0.029 | entinostat 0.059 | vorinostat 0.088 | citarinostat 0.079 | silmitasertib 0.13 | [5] 0.065 | [6] -0.128 | entospletinib 0.109

NLE1 (UniProt Q9NVX2)
inactive: [1] 0.046 | [2] -0.009 | [3] -0.004 | [4] -0.003 | entinostat 0.017 | vorinostat 0.019 | citarinostat 0.041 | silmitasertib 0.023 | [5] -0.031 | [6] -0.003 | entospletinib -0.036

NIBAN2 (UniProt Q96TA1)
inactive: [1] -0.038 | [2] 0.004 | [3] -0.047 | [4] -0.029 | entinostat 0 | vorinostat -0.002 | citarinostat 0.041 | silmitasertib -0.03 | [5] -0.049 | [6] -0.055 | entospletinib -0.015

NPC2 (UniProt P61916)
inactive: [1] 0.048 | [2] 0.016 | [3] -0.034 | [4] -0.008 | entinostat -0.011 | vorinostat 0.011 | citarinostat 0.142 | silmitasertib -0.008 | [5] -0.025 | [6] 0.027 | entospletinib -0.123

NIT2 (UniProt Q9NQR4)
inactive: [1] -0.032 | [2] -0.03 | [3] -0.007 | [4] 0 | entinostat -0.009 | vorinostat 0.019 | citarinostat 0.01 | silmitasertib 0.002 | [5] -0.046 | [6] 0.003 | entospletinib 0

NRAS (UniProt P01111)
inactive: [1] -0.05 | [2] 0.034 | [3] 0.042 | [4] 0.045 | entinostat -0.027 | vorinostat -0.048 | citarinostat 0 | silmitasertib -0.038 | [5] 0.004 | [6] -0.021 | entospletinib 0.006

NME6 (UniProt O75414)
inactive: [1] -0.039 | [2] -0.021 | [3] -0.033 | [4] -0.052 | entinostat 0.048 | vorinostat -0.141 | citarinostat -0.011 | silmitasertib -0.024 | [5] -0.149 | [6] -0.01 | entospletinib -0.005

NEK7 (UniProt Q8TDX7)
inactive: [1] 0.008 | [2] -0.042 | [3] -0.069 | [4] -0.028 | entinostat -0.041 | vorinostat 0.067 | citarinostat 0.017 | silmitasertib 0.025 | [5] -0.027 | [6] -0.026 | entospletinib -0.034

NLRP2 (UniProt Q9NX02)
inactive: [1] -0.094 | [2] -0.131 | [3] -0.134 | [4] -0.061 | entinostat -0.01 | vorinostat 0.066 | citarinostat 0.056 | silmitasertib 0.205 | [5] 0.05 | [6] -0.041 | entospletinib 0.092

NFS1 (UniProt Q9Y697)
inactive: [1] 0.033 | [2] -0.054 | [3] -0.029 | [4] -0.014 | entinostat -0.024 | vorinostat 0.031 | citarinostat 0.026 | silmitasertib -0.041 | [5] -0.012 | [6] -0.004 | entospletinib -0.029

NLN (UniProt Q9BYT8)
inactive: [1] 0.012 | [2] -0.038 | [3] -0.034 | [4] -0.021 | entinostat -0.018 | vorinostat 0.023 | citarinostat 0.103 | silmitasertib -0.044 | [5] -0.043 | [6] 0.026 | entospletinib -0.034

NFKB1 isoform 2 (UniProt P19838)
inactive: [1] -0.01 | [2] -0.117 | [3] -0.138 | [4] -0.033 | entinostat -0.014 | vorinostat 0.217 | citarinostat 0.055 | silmitasertib -0.015 | [5] 0.17 | [6] -0.104 | entospletinib 0.071

NSL1 (UniProt Q96IY1)
inactive: [1] 0.034 | [2] -0.017 | [3] -0.057 | [4] -0.042 | entinostat 0.125 | vorinostat 0.071 | citarinostat -0.113 | silmitasertib -0.038 | [6] 0.035 | entospletinib 0.064

NHP2 (UniProt Q9NX24)
inactive: [1] 0.077 | [2] 0.087 | [3] 0.23 | [4] 0.09 | entinostat -0.117 | vorinostat -0.048 | citarinostat 0.013 | silmitasertib 0.145 | [5] 0.213 | [6] -0.106 | entospletinib -0.036

NFIA isoform 4 (UniProt Q12857)
inactive: [1] 0.025 | [2] -0.039 | [3] 0.021 | [4] 0.018 | entinostat -0.046 | vorinostat -0.14 | citarinostat -0.109 | silmitasertib 0.043 | [5] 0.028 | [6] -0.096 | entospletinib 0.047

NF2 (UniProt P35240)
inactive: [1] -0.024 | [2] -0.033 | [3] 0.016 | [4] -0.07 | entinostat 0.058 | vorinostat 0.044 | citarinostat 0.007 | silmitasertib 0.05 | [5] -0.083 | [6] -0.025 | entospletinib 0.023

NIPA2 (UniProt Q8N8Q9)
inactive: [1] -0.08 | [2] 0.005 | [3] -0.051 | [4] -0.058 | entinostat -0.031 | vorinostat -0.046 | citarinostat -0.048 | silmitasertib 0.122 | [5] -0.083 | [6] -0.146 | entospletinib 0.032
